According to paper PMC6299479:
No constants are given. Whether binding was seen depends on the method and setting.

Experiments:
[1] = target: Trichomonas vaginalis NlpC_A1 (TVAG_119910) (Trichomonas vaginalis) (UniProt A2D7D7); test: small-angle X-ray scattering (SAXS); dilution series of each protein in solution; no concentration dependence in the scattering profile; both purified
[2] = target: Trichomonas vaginalis NlpC_A2 (TVAG_457240) (Trichomonas vaginalis) (UniProt A2DC48); test: as above

| Substance | binding [1] | binding [2] |
| --- | --- | --- |
| Trichomonas vaginalis NlpC_A1 (TVAG_119910) (from UniProt A2D7D7 1-275) (enzyme) | no binding | – |
| Trichomonas vaginalis NlpC_A2 (TVAG_457240) (from UniProt A2DC48 1-275) (enzyme) | – | no binding |
